This is one part of the list.

Protein sequences, listed by entry. Tags and fused reporters are not part of them. Lines headed by an entry give the natural chain unless they say otherwise; changes in a name come on top.
UniProt O15162: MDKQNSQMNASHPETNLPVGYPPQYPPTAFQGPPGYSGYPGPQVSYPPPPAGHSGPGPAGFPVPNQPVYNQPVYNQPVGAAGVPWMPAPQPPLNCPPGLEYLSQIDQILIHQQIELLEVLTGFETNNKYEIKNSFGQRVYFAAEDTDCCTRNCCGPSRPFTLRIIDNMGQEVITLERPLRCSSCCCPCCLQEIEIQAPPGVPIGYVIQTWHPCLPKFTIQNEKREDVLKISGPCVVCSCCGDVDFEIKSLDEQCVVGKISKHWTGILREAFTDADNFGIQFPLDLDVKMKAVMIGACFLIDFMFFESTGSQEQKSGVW
UniProt Q9NRX1: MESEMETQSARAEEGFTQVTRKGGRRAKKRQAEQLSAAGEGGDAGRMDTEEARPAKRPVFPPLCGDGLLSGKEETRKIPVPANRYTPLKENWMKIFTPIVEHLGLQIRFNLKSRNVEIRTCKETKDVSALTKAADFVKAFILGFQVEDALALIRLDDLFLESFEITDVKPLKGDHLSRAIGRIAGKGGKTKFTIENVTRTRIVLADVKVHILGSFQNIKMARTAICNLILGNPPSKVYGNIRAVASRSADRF
UniProt O95602, whole entry, looked up: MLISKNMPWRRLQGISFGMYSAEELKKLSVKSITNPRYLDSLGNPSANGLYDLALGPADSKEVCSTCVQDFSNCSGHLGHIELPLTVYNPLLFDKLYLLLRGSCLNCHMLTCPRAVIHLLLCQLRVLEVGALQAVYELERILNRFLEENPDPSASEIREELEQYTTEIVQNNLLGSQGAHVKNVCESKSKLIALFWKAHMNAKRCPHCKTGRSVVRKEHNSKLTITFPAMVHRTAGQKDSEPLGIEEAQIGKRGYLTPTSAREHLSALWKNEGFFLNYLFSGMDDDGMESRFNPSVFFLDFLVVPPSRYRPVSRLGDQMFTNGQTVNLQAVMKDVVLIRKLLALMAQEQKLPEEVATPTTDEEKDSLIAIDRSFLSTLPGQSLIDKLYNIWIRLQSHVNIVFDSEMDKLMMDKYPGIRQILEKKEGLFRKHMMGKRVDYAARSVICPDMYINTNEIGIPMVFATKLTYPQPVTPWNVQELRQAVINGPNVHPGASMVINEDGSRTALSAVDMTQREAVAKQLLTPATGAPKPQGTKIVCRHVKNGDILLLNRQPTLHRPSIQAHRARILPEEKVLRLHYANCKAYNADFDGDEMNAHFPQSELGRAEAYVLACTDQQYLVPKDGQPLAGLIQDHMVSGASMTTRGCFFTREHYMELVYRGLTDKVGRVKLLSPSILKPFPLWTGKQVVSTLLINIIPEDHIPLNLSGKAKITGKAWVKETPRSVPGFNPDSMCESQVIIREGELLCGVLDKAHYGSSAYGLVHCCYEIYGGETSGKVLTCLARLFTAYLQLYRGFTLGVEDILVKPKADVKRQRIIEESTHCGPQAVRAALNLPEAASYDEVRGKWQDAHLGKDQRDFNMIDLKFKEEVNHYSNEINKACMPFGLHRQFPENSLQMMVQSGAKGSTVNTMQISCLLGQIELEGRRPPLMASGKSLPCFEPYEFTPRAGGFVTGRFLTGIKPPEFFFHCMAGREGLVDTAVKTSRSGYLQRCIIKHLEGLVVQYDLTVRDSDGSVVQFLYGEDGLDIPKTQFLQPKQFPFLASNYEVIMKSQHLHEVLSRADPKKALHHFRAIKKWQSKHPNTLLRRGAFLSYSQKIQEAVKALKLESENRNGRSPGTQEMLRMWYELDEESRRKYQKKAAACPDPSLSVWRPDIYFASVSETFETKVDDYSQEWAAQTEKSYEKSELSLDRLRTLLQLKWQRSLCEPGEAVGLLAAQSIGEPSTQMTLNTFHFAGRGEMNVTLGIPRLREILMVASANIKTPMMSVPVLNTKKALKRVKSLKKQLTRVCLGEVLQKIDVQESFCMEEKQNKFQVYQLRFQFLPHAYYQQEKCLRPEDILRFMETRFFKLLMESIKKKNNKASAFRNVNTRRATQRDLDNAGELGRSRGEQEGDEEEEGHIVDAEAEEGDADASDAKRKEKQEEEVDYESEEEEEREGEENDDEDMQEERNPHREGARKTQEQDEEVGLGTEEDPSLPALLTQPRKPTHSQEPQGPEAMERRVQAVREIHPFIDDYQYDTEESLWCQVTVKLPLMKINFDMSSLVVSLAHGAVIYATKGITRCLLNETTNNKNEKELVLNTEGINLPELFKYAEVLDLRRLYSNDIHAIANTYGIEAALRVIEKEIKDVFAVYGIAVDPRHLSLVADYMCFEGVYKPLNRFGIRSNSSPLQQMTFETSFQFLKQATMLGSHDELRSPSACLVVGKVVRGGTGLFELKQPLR
UniProt Q02809: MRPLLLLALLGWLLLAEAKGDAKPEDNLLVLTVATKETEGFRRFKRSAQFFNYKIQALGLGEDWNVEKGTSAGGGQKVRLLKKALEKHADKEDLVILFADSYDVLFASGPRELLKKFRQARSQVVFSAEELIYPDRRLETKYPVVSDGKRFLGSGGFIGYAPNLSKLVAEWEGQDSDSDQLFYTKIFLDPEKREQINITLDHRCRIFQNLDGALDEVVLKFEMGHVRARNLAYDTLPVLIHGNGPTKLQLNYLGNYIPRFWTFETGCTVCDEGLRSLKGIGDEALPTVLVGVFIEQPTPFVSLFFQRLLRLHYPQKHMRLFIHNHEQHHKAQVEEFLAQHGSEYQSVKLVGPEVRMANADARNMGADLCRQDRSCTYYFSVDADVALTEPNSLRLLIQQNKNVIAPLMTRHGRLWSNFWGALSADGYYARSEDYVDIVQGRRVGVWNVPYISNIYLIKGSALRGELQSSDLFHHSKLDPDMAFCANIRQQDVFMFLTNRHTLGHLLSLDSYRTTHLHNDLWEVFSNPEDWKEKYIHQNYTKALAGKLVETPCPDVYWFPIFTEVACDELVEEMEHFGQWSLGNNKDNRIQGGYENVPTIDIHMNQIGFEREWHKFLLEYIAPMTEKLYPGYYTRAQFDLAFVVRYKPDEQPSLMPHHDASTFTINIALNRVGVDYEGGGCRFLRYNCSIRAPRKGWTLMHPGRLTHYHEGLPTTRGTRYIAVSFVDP
UniProt Q9HAB8: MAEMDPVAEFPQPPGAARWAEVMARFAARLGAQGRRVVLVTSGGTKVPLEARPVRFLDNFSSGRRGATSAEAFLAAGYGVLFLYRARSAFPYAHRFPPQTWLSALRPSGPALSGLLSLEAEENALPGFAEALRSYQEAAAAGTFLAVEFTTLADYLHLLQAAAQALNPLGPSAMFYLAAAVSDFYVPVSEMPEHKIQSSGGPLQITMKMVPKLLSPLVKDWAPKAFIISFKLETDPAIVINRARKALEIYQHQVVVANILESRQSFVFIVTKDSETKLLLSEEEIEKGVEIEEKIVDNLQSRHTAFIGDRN
UniProt O15318: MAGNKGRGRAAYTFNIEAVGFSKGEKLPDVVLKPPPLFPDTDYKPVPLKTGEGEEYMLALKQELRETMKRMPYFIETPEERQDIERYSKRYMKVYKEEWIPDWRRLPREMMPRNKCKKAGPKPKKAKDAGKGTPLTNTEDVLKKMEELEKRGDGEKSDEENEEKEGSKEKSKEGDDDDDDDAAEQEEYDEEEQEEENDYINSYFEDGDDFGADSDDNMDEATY
UniProt Q9NZ53: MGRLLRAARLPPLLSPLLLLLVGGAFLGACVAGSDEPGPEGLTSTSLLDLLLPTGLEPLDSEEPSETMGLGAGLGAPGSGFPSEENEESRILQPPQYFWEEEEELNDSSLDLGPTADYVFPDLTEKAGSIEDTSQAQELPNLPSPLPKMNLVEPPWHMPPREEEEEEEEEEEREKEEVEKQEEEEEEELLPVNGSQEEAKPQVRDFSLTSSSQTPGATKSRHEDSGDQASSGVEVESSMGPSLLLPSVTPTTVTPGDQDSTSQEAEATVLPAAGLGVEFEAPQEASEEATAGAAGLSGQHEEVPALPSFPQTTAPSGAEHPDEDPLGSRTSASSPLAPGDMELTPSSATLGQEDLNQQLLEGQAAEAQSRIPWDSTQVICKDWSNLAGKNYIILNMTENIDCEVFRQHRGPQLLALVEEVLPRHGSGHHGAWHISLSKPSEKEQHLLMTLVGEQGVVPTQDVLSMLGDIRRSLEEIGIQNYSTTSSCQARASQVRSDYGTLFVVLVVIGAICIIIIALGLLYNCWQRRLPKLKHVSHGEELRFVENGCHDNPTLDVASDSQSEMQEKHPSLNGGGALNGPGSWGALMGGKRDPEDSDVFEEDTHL
UniProt O43447: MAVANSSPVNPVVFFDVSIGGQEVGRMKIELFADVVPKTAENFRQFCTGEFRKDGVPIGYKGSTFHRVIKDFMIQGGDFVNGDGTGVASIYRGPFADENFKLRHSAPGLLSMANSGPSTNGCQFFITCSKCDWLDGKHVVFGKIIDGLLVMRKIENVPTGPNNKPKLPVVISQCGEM
UniProt Q15063: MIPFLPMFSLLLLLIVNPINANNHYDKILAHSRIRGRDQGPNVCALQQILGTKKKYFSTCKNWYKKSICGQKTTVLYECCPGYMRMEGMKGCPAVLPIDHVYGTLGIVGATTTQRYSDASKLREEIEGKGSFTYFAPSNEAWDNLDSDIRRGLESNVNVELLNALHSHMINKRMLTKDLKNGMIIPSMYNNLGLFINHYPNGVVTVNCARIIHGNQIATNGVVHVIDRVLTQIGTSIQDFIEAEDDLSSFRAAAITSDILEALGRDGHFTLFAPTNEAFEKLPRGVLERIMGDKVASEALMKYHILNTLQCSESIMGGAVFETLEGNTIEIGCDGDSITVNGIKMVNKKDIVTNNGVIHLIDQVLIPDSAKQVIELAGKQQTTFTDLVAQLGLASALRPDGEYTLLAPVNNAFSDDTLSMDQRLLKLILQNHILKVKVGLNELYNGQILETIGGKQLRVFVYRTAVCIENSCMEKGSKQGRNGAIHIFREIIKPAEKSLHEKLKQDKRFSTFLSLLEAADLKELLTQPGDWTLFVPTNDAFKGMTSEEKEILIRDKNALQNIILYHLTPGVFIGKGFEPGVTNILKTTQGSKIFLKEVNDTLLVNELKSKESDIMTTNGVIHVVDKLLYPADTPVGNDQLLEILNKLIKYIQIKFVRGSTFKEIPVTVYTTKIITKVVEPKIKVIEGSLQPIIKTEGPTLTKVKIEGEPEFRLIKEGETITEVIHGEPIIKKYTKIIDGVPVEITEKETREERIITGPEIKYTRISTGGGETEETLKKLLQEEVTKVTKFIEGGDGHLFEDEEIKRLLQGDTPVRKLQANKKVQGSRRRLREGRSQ
UniProt Q96AD5: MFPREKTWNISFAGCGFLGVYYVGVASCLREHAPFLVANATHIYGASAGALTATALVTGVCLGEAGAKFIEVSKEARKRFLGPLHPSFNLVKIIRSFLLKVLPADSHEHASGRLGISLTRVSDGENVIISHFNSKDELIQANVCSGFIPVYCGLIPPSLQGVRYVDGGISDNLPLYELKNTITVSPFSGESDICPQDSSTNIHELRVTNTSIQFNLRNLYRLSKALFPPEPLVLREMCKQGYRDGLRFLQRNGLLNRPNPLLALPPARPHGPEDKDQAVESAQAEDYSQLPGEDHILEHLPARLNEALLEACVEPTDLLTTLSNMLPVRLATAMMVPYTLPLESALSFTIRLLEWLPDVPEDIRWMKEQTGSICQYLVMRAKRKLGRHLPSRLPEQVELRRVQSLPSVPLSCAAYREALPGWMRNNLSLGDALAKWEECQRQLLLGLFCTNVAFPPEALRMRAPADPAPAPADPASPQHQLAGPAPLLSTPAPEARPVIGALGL
UniProt Q9Y535: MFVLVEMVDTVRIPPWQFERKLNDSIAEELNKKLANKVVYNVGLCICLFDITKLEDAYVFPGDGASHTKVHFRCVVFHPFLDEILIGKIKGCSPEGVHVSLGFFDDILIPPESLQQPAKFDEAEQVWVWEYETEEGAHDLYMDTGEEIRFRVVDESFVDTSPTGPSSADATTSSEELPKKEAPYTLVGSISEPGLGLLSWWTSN
UniProt P30405: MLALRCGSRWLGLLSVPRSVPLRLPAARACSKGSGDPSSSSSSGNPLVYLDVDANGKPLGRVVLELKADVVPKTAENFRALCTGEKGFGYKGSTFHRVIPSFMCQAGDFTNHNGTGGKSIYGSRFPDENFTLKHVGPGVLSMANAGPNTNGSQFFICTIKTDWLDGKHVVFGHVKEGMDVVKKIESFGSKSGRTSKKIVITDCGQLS
UniProt O94903: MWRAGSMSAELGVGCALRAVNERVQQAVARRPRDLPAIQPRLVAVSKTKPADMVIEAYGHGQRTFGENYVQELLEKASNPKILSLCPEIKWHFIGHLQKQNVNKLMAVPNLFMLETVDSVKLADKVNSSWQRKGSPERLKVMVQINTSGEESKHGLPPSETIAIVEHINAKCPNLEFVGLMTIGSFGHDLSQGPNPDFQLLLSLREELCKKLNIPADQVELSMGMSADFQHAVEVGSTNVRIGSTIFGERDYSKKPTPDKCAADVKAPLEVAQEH
UniProt Q6P1K2: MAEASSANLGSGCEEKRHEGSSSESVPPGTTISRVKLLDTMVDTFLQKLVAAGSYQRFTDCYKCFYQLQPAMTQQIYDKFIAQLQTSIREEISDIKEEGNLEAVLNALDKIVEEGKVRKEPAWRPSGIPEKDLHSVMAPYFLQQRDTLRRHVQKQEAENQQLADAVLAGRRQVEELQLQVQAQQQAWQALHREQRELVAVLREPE

Here are results for 32 targets from the supplement of paper PMC10849652.

Compound in one assay: CC1=C(C=C(C=C1)NC(=O)C2=CC(=CC=C2)C(C)(C)C#N)NC3=CC4=C(C=C3)N=CN(C4=O)C
As to the kind of experiment: log2 fold change, soluble protein after heating vs DMSO (PISA); higher = thermal stabilisation; K562 cells, 10 uM, 30 min; active = over 0.2 and 3.5 SD of the protein, either way, in both replicates (recomputed). The procedure, abridged:
(§1)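 K562 cells at 2×10^6 cells/mL were treated for 30 min with 10 μM compound, and aliquots were heated for 3 min over 48°C-58°C before pooling. Extraction used PBS with 0.5% NP-40 at 4°C, and soluble protein was the supernatant after 21,000xg for 90 min, measured by TMTpro 16plex LC-MS/MS with channel sums equalised. Thermal stability values, relative to control samples and from duplicates, are log2 fold changes.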
For POLR2A (UniProt P24928), the log2 fold change was inactive: -0.009.

In the case of POLR2K (UniProt P53803), the log2 fold change is inactive: -0.036.

As to POLR2F (UniProt P61218), the log2 fold change was inactive: 0.117.

Take PLSCR1 (UniProt O15162): the log2 fold change is inactive: 0.13.

On to PNO1 (UniProt Q9NRX1), for which the log2 fold change was inactive: 0.057.

POLR1A (UniProt O95602): the log2 fold change is inactive: -0.082.

As to PLOD1 isoform 2 (UniProt Q02809), the log2 fold change is inactive: 0.027.

As to PPCS (UniProt Q9HAB8), the log2 fold change was inactive: -0.028.

POLR3G (UniProt O15318): the log2 fold change was inactive: -0.015.

In the case of POFUT1 (UniProt Q9H488), the log2 fold change is inactive: 0.039.

With PLXNA1 (UniProt Q9UIW2), the log2 fold change was inactive: 0.006.

In the case of POLR2I (UniProt P36954), the log2 fold change is inactive: -0.063.

Regarding PLEKHF2 (UniProt Q9H8W4), the log2 fold change is inactive: 0.002.

Consider PLK1 (UniProt P53350), for which the log2 fold change is inactive: 0.003.

Consider PODXL2 (UniProt Q9NZ53), for which the log2 fold change is inactive: 0.144.

For PLS3 (UniProt P13797), the log2 fold change is inactive: -0.038.

Turning to POTEI (UniProt P0CG38), the log2 fold change was inactive: 0.056.

For PPIE (UniProt Q9UNP9), the log2 fold change was inactive: -0.041.

For the target PPIH (UniProt O43447), the log2 fold change is inactive: 0.022.

Take POSTN (UniProt Q15063): the log2 fold change was inactive: -0.129.

Turning to PPID (UniProt Q08752), the log2 fold change is inactive: 0.011.

For the target PNPLA2 (UniProt Q96AD5), the log2 fold change was inactive: 0.009.

As to PPIL1 (UniProt Q9Y3C6), the log2 fold change was inactive: -0.002.

For the target PPFIA2 (UniProt O75334), the log2 fold change is inactive: 0.018.

On to PPM1A isoform 3 (UniProt P35813), for which the log2 fold change is inactive: 0.013.

Turning to POLR3H (UniProt Q9Y535), the log2 fold change was inactive: -0.074.

As to PMM2 (UniProt O15305), the log2 fold change was inactive: -0.102.

Turning to PPIF (UniProt P30405), the log2 fold change was inactive: -0.006.

For the target PLPBP (UniProt O94903), the log2 fold change is inactive: 0.207.

Turning to PMF1 (UniProt Q6P1K2), the log2 fold change is inactive: -0.009.

Turning to POLR3C (UniProt Q9BUI4), the log2 fold change is inactive: -0.037.

As for POTEF (UniProt A5A3E0), the log2 fold change is inactive: -0.033.

Compound in the next assay: CC1=C(C=C(C=C1)NC(=O)C2=CC(=CC=C2)N(C)C)NC(=O)C3=CC=C(C=C3)O
Described as above. Put shortly: as §1
On to POLR2A (UniProt P24928), for which the log2 fold change is inactive: -0.049.

With POLR2K (UniProt P53803), the log2 fold change is inactive: 0.065.

For the target POLR2F (UniProt P61218), the log2 fold change was inactive: -0.069.

Turning to PLSCR1 (UniProt O15162), the log2 fold change was inactive: 0.06.

Turning to PNO1 (UniProt Q9NRX1), the log2 fold change was inactive: -0.027.

As to POLR1A (UniProt O95602), the log2 fold change was inactive: -0.019.

For the target PLOD1 isoform 2 (UniProt Q02809), the log2 fold change is inactive: -0.041.

Take PPCS (UniProt Q9HAB8): the log2 fold change was inactive: -0.013.

Turning to POLR3G (UniProt O15318), the log2 fold change is inactive: -0.028.

As for POFUT1 (UniProt Q9H488), the log2 fold change is inactive: -0.01.

Regarding PLXNA1 (UniProt Q9UIW2), the log2 fold change is inactive: -0.006.

For the target POLR2I (UniProt P36954), the log2 fold change was inactive: -0.011.

PLEKHF2 (UniProt Q9H8W4): the log2 fold change is inactive: -0.007.

As for PLK1 (UniProt P53350), the log2 fold change was inactive: -0.052.

With PODXL2 (UniProt Q9NZ53), the log2 fold change was inactive: -0.013.

PLS3 (UniProt P13797): the log2 fold change is inactive: 0.009.

In the case of POTEI (UniProt P0CG38), the log2 fold change is inactive: -0.035.

Regarding PPIE (UniProt Q9UNP9), the log2 fold change is inactive: -0.036.

As for PPIH (UniProt O43447), the log2 fold change was inactive: -0.001.

With POSTN (UniProt Q15063), the log2 fold change is inactive: 0.063.

As for PPID (UniProt Q08752), the log2 fold change is inactive: -0.047.

For the target PNPLA2 (UniProt Q96AD5), the log2 fold change is inactive: -0.017.

Take PPIL1 (UniProt Q9Y3C6): the log2 fold change is inactive: 0.023.

With PPFIA2 (UniProt O75334), the log2 fold change is inactive: -0.013.

With PPM1A isoform 3 (UniProt P35813), the log2 fold change is inactive: 0.01.

Turning to POLR3H (UniProt Q9Y535), the log2 fold change was inactive: -0.037.

On to PMM2 (UniProt O15305), for which the log2 fold change is inactive: 0.021.

As to PPIF (UniProt P30405), the log2 fold change was inactive: 0.008.

On to PLPBP (UniProt O94903), for which the log2 fold change was inactive: 0.001.

On to PMF1 (UniProt Q6P1K2), for which the log2 fold change was inactive: 0.036.

On to POLR3C (UniProt Q9BUI4), for which the log2 fold change is inactive: 0.008.

For POTEF (UniProt A5A3E0), the log2 fold change was inactive: 0.012.

Compound in a further assay: CC1=CC=C(C=C1)SC2=C3C=C(SC3=CN=C2)C(=O)N
The assay is described as above. Put shortly:
as §1
As to POLR2A (UniProt P24928), the log2 fold change was inactive: 0.064.

Take POLR2K (UniProt P53803): the log2 fold change is inactive: 0.056.

For the target POLR2F (UniProt P61218), the log2 fold change was inactive: 0.032.

For PLSCR1 (UniProt O15162), the log2 fold change is inactive: 0.025.

Consider PNO1 (UniProt Q9NRX1), for which the log2 fold change is inactive: -0.009.

Regarding POLR1A (UniProt O95602), the log2 fold change was inactive: -0.198.

With PLOD1 isoform 2 (UniProt Q02809), the log2 fold change was inactive: -0.041.

PPCS (UniProt Q9HAB8): the log2 fold change is inactive: -0.011.

Take POLR3G (UniProt O15318): the log2 fold change is inactive: 0.014.

On to POFUT1 (UniProt Q9H488), for which the log2 fold change was inactive: -0.038.

PLXNA1 (UniProt Q9UIW2): the log2 fold change is inactive: -0.039.

On to POLR2I (UniProt P36954), for which the log2 fold change is inactive: -0.015.

Regarding PLEKHF2 (UniProt Q9H8W4), the log2 fold change was inactive: 0.063.

Regarding PLK1 (UniProt P53350), the log2 fold change was inactive: -0.03.

Consider PODXL2 (UniProt Q9NZ53), for which the log2 fold change was inactive: 0.032.

Turning to PLS3 (UniProt P13797), the log2 fold change is inactive: 0.031.

On to POTEI (UniProt P0CG38), for which the log2 fold change was inactive: -0.012.

For PPIE (UniProt Q9UNP9), the log2 fold change is inactive: -0.015.

For PPIH (UniProt O43447), the log2 fold change was inactive: -0.008.

With POSTN (UniProt Q15063), the log2 fold change was inactive: 0.074.

Take PPID (UniProt Q08752): the log2 fold change is inactive: 0.091.

As to PNPLA2 (UniProt Q96AD5), the log2 fold change is inactive: -0.003.

On to PPIL1 (UniProt Q9Y3C6), for which the log2 fold change was inactive: 0.

On to PPFIA2 (UniProt O75334), for which the log2 fold change is inactive: -0.02.

For the target PPM1A isoform 3 (UniProt P35813), the log2 fold change is inactive: -0.012.

POLR3H (UniProt Q9Y535): the log2 fold change is inactive: 0.068.

With PMM2 (UniProt O15305), the log2 fold change was inactive: -0.014.

For PPIF (UniProt P30405), the log2 fold change was inactive: -0.019.

As for PLPBP (UniProt O94903), the log2 fold change was inactive: 0.088.

Turning to PMF1 (UniProt Q6P1K2), the log2 fold change was inactive: 0.011.

With POLR3C (UniProt Q9BUI4), the log2 fold change is inactive: 0.

With POTEF (UniProt A5A3E0), the log2 fold change is inactive: 0.023.
